From PMC4337568
Results are given in words; binding and its absence hold for the method and conditions named. Some entries that bind do so weakly or less than the wild type.

Amino acid sequences for entries named in this document (tags omitted).
UniProt P84077: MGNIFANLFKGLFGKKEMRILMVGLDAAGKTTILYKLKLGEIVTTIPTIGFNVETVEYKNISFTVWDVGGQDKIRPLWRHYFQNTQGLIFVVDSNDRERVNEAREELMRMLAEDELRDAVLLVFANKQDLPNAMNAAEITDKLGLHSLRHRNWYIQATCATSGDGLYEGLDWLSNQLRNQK

Target: myristoylated Arf1, GTP-loaded, anchored to phospholipid-coated silica beads (UniProt P84077)
Assay: pull-down; myristoylated GTP-loaded Arf1 anchored to phospholipid-coated silica beads, incubated with GGA3^GAT, washed, then incubated 10 min in HKSM (10 mM HEPES pH 7.4, 100 mM KCl, 1 mM MgCl) with buffer or Arf GAPs; beads washed, membrane-bound proteins extracted with SDS-urea, SDS-PAGE and immunoblot; both purified

binding: binds
B1: GAT domain of GGA3 (domain or fragment, UniProt Q9NZ52 171-298)
chain: DEEKSKLLAKLLKSKNPDDLQEANKLIKSMVKEDEARIQKVTKRLHTLEEVNNNVRLLSEMLLHYSQEDSSDGDRELMKELFDQCENKRRTLFKLASETEDNDNSLGDILQASDNLSRVINSYKTIIE
